According to patent US20240091303A1, “BIOMARKER-BASED TREATMENT OF FOCAL SEGMENTAL GLOMERULOSCLEROSIS AND DIABETIC KIDNEY DISEASE” (Goldfinch Bio, Inc., priority 2019, published 2024):

System: DOCA-salt hypertensive rats
Experiment: Effects of cyclosporine A and tacrolimus in DOCA-salt hypertensive rats (albuminuria)
Type: in vivo, Sprague Dawley rats
Conditions: DOCA-salt treatment with cyclosporine A or tacrolimus
Description: The DOCA-salt hypertensive rat model is a well-established model of mineralocorticoid hypertension with renal dysfunction leading to an FSGS phenotype, characterized by increased levels of urinary protein and albumin excretion. [Schenk et al., “The pathogenesis of DOCA-salt hypertension,” J. Pharmacol. Toxicol.
Six to seven weeks old Sprague Dawley rats were unilaterally nephrectomized; after one-week recovery, rats were implanted with a DOCA pellet (45 mg) and provided tap water containing 0.9% NaCl and 0.2% KCl (Day 1) for a 3 weeks treatment. […] Sham animals, implanted with a silicone-water pellet, were given tap water and received administration of the vehicle. Proteinuria and albuminuria were recorded every week, and body weight was recorded daily.

C=CC[C@@H]1/C=C(\C)C[C@H](C)C[C@H](OC)[C@H]2O[C@@](O)(C(=O)C(=O)N3CCCC[C@H]3C(=O)O[C@H](/C(C)=C/[C@@H]3CC[C@@H](O)[C@H](OC)C3)[C@H](C)[C@@H](O)CC1=O)[C@H](C)C[C@@H]2OC [tacrolimus, Tacrolimus]
water intake per day: elevated
